Reference: PubChem BioAssay AID1259405 (NCATS, 2018)
The whole screen tested about 50,000 reagents; shown is a random part of them. About 4,000 of them (8%) were called active. 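Mouse siRNA library applied to hamster cells; one well for each siRNA.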 The numbers tell different reagents against one gene apart.

Assay: 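Knock-downs that lift recombinant protein yield in hamster ovary cells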 (primary screen)
Cells: Chinese hamster CHO-K1 ovary cells with stable secreted eGFP expression
Reagents: single siRNA against mouse genes, 0.8 pmol siRNA per well (2 µl of 400 nM stock)
Duration: 3 days
Read-out: 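Per-well intracellular GFP measured by laser scanning cytometry, plus viability from ATP luminescence, each relative to plate median of non-targeting control wells, in %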
Reading the numbers: GFP, % of control: higher = more GFP per well, higher productivity; viability (ATP), % of control: higher = more viable cells (more ATP)
Active means: 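a knock-down is called active if GFP reaches 120% or more of non-targeting control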

Gene | reagent | GFP, % of control | viability (ATP), % of control | Call
Nars2 | 1 | 135 | 81.6 | active
Nars2 | 2 | 47.8 | 67.4 | inactive
Nars2 | 3 | 38.9 | 37.4 | inactive
Phf1 | 1 | 43.9 | 56.1 | inactive
Phf1 | 2 | 85.5 | 94.4 | inactive
Phf1 | 3 | 76.8 | 71.9 | inactive
Rars1 | 1 | 147 | 72.2 | active
Rars1 | 2 | 80 | 59.7 | inactive
Ints4 | 1 | 110 | 79.4 | inactive
Ints4 | 2 | 56.6 | 78 | inactive
Ints4 | 3 | 74.3 | 76.1 | inactive
Bola1 | 1 | 117 | 146 | inactive
Bola1 | 2 | 47.6 | 57.4 | inactive
Bola1 | 3 | 206 | 154 | active
Rgp1 | 1 | 65.7 | 67.1 | inactive
Rgp1 | 2 | 84.8 | 81.3 | inactive
Rgp1 | 3 | 123 | 120 | active
Snx24 | 1 | 62.4 | 53 | inactive
Snx24 | 2 | 64.4 | 73.1 | inactive
Snx24 | 3 | 72.8 | 59 | inactive

The list goes on; the last 4 above are carried over.
Gene | reagent | GFP, % of control | viability (ATP), % of control | Call
Rgp1 | 3 | 123 | 120 | active
Snx24 | 1 | 62.4 | 53 | inactive
Snx24 | 2 | 64.4 | 73.1 | inactive
Snx24 | 3 | 72.8 | 59 | inactive
D830030K20Rik | 1 | 105 | 119 | inactive
D830030K20Rik | 2 | 98 | 129 | inactive
D830030K20Rik | 3 | 73.5 | 63.5 | inactive
C1ql1 | 1 | 20.4 | 34.3 | inactive
C1ql1 | 2 | 63.1 | 44.8 | inactive
C1ql1 | 3 | 64.2 | 68.9 | inactive
Uba1y | 1 | 54.6 | 56.5 | inactive
Uba1y | 2 | 64.2 | 76.1 | inactive
Uba1y | 3 | 69 | 57.8 | inactive
Ptbp2 | 1 | 31.3 | 48.2 | inactive
Ptbp2 | 2 | 101 | 92.6 | inactive
Fmn1 | 1 | 65.5 | 58.2 | inactive
Fmn1 | 2 | 60 | 65.7 | inactive
Fmn1 | 3 | 91 | 71.9 | inactive
